Data as given in PubChem BioAssay AID1671190 (National Center for Advancing Translational Sciences (NCATS), 2021).
Out of some 580,000 compounds screened, about 6,100 (1.1%) were called active. Inconclusive means that the source gave no clear call. Such entries were picked first, then a sample of the others. The call rests on the fitted dose curve; in most records, active means well fitted inhibition curve with a large enough effect; inconclusive means small, poorly fitted or top-dose-only effect, or another doubt; inactive means no such curve, though single readings can be large or run the other way. A potency beside an inconclusive call is a rough fit, not a confirmed value.

Chains of the proteins cited; added tags and fusions are not shown. Lines headed by an entry give the natural chain unless they say otherwise; changes in a name come on top.
UniProt P18054: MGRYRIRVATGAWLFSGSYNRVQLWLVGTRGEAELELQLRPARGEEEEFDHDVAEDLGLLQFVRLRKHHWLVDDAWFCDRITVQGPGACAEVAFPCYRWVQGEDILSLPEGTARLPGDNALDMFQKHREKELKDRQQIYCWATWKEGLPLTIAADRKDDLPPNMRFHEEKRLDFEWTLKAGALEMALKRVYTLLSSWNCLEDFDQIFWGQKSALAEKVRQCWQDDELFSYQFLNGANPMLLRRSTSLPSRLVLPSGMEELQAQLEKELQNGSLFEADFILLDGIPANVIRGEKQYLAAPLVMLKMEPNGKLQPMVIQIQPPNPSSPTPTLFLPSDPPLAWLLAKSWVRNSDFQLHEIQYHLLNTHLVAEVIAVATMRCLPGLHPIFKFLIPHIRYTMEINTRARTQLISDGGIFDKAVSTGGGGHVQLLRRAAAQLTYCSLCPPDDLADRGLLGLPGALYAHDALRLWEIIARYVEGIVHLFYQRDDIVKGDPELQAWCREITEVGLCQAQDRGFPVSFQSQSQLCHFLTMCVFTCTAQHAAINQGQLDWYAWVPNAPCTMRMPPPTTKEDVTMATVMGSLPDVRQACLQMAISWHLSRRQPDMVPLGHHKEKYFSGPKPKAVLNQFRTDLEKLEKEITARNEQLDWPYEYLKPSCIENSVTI

biological target: Polyunsaturated fatty acid lipoxygenase ALOX12 (Homo sapiens) (UniProt P18054); assay: Primary qHTS assay for inhibitors of human arachidonate 12S-lipoxygenase (ALOX12): Round 2; conditions: purified 12hLO, xylenol orange hydroperoxide absorbance; activity change, negative = inhibition: at 108 µM (top of the series) unless noted
Method in brief: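 Purified human 12hLO (150 nM final) in 25 mM Hepes, 0.01% Triton X-100, pH 7.0 was preincubated 15 min at room temperature with compound. Then 40 uM arachidonic acid was added, 30 min. Hydroperoxide was read by Fe-XO absorbance ratio 573/405 nm.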
On the % scale 0 is the no-effect control and ±100 the full control effect; potency means the concentration at half of the fitted maximal effect.

Row | Compound | Potency | activity change, negative = inhibition
1 | COCCN(C(=O)COC(=O)c1cc2c(s1)CCC2)c1c(N)n(Cc2ccccc2)c(=O)[nH]c1=O | inconclusive: 35.5 µM [inhibitor, partial curve, poor fit] | 
2 | Fc1ccc(C=Nc2cccc3c(N=Cc4ccc(F)cc4)cccc23)cc1 | inconclusive: 44.7 µM [inhibitor, partial curve, poor fit] | 
3 | COc1ccc(NC(=O)CNc2ccc(C#N)cc2)cc1 | inconclusive: 112 µM [inhibitor, single point] | 
4 | COCCn1cnnc1SCc1ccc(Br)cc1 | inconclusive: 35.5 µM [inhibitor, single point] | 
5 | CCCSc1ncc(Cl)c(C(=O)N(Cc2ccc(N(C)C)cc2)C2CCS(=O)(=O)C2)n1 (centres undefined) |  | inactive: -23.4%
6 | Cc1ccc(CC(=O)N(C)Cc2ccsc2)cc1 |  | inactive: 12.9%
7 | C=CCN1C(=O)/C(=C2\SC(N3CCOCC3)=NC2=O)c2cc(Br)ccc21 |  | inactive: -13.5%
8 | Cc1ccc(-c2nnc(SCC(=O)Nc3sc(C)c(C)c3C#N)n2C)cc1 | inconclusive: 100 µM [inhibitor, partial curve, poor fit] | 
9 | COc1ccccc1NC(=S)N1CCN(Cc2ccc3c(c2)OCO3)CC1 |  | inactive: -0.714%
10 | COCCNc1cc(-c2ccccc2C)ncn1 | inconclusive: 10 µM [inhibitor, full curve, poor fit] | 
11 | Cc1c(-c2ccccc2)nn2c1NC(=O)CC2C(=O)Nc1ccccc1Cl (centres undefined) | inconclusive: 35.5 µM [inhibitor, partial curve, poor fit] | 
12 | Cc1cccc(-c2noc(-c3cccnc3NCc3ccco3)n2)c1 | inconclusive: 39.8 µM [inhibitor, partial curve, poor fit] | 
13 | COc1cccc(C2c3c(oc4ccc(C)cc4c3=O)C(=O)N2CCCN2CCOCC2)c1OC (centres undefined) | inconclusive: 100 µM [inhibitor, partial curve, poor fit] | 
14 | CC(C)N1C(=O)S/C(=C\c2ccc(-c3ccc(Cl)c(C(=O)O)c3)o2)C1=O | inconclusive: 44.7 µM [inhibitor, partial curve, poor fit] | 
15 | COc1ccc(/C=C/C(=O)NCCN2CCOCC2)cc1OC |  | inactive: 0%
16 | COC(=O)C1=C(N)Oc2cc(C)n(Cc3ccco3)c(=O)c2C1c1cccc(Cl)c1 (centres undefined) |  | inactive: 0%
17 | O=C(Nc1ccccc1)Nc1ccc(NC(=O)c2cc[n+]([O-])cc2)cc1 | inconclusive: 10 µM [inhibitor, full curve, poor fit] | 
18 | COc1ccc(-n2c(=O)c3c4c(sc3n(Cc3cc(C)ccc3C)c2=O)CN(C(C)=O)CC4)c(OC)c1 | inconclusive: 126 µM [inhibitor, partial curve, poor fit] | 
19 | CN(C)S(=O)(=O)N1CCN(CC(O)COc2ccc(-c3ccccc3)cc2)CC1 (centres undefined) | inconclusive: 50.1 µM [inhibitor, partial curve, poor fit] | 
20 | CCOc1nc2ccccc2nc1N1CCC(C(=O)Nc2cccc(F)c2)CC1 | inconclusive: 112 µM [inhibitor, partial curve, poor fit] | 
21 | COc1ccc(-c2nc(S(=O)(=O)c3ccc(F)cc3)c(N3CCOCC3)o2)cc1 |  | inactive: 5.28%
22 | CCOc1ccc(C(=O)CCC(=O)NN2C(=O)NC3(CCCCC3)C2=O)cc1 | inconclusive: 112 µM [inhibitor, single point] | 

Row | Compound | Potency | activity change, negative = inhibition
23 | O=C(COC(=O)c1ccccc1SCC(=O)N1CCCC1)NC1CCS(=O)(=O)C1 (centres undefined) | inconclusive: 50.1 µM [inhibitor, partial curve, poor fit] | 
24 | COc1ccccc1/C=C(\C#N)c1nc2ccccc2[nH]1 | inconclusive: 3.98 µM [inhibitor, full curve, poor fit] | 
25 | CC(=O)Nc1ccc(SC[C@H](Cc2ccccc2)N2CCN(CCc3ccccc3)CCC2=O)cc1 | inconclusive: 25.1 µM [inhibitor, single point] | 
26 | CC(=O)CC1(O)C(=O)N(Cc2ccccc2)c2ccccc21 (centres undefined) |  | inactive: 6.21%
27 | O=C(O)c1ccccc1C(=O)Nc1cc(-c2ccccc2)[nH]n1 | inconclusive: 39.8 µM [inhibitor, single point] | 
28 | CC1CCC(NC(=O)c2ccc3ncsc3c2)CC1 (centres undefined) |  | inactive: 10.5%
29 | Cc1ccc(-c2cc(=O)c3cc(Br)ccc3o2)cc1 | inconclusive: 126 µM [inhibitor, single point] | 
30 | C/C(=N\Nc1cc(C)nc(-c2ccccc2O)n1)c1ccccc1 |  | inactive: 14%
31 | CCCNC(=O)c1cc2c(=O)[nH]c(C)cn2n1 | inconclusive: 15.8 µM [inhibitor, full curve] | 
32 | Cc1ccc(C(=O)c2ccccc2C(=O)OCc2ccccc2Cl)cc1 |  | inactive: -2.13%
33 | Cn1c(=O)oc2ccc(C(=O)N3CCn4nc(C(O)CO)cc4C3)cc21 (centres undefined) |  | inactive: 23.6%
34 | COC(=O)CN1C(=S)N(c2ccc(F)cc2)C(=O)C1CC(=O)Nc1ccccc1 (centres undefined) | inconclusive: 79.4 µM [inhibitor, partial curve, poor fit] | 
35 | CCNc1cc(C)nc(Nc2ccc(NC(=O)c3ccccc3F)cc2)n1 | inconclusive: 112 µM [inhibitor, single point] | 
36 | COc1ccccc1NC(=S)NC1CCC(CC2CCC(NC(=S)Nc3ccccc3OC)CC2)CC1 (centres undefined) | active: 31.6 µM | 
37 | Cc1ccc(S(=O)(=O)CCNC(=O)c2cc3n(n2)CCCNC3)cc1 | inconclusive: 70.8 µM [inhibitor, partial curve, poor fit] | 
38 | COc1cccc(OCCCn2ccnc2)c1 | inconclusive: 79.4 µM [inhibitor, single point] | 
39 | O=C(O)c1cc(C2CC2)nn1-c1ccccc1 | inconclusive: 35.5 µM [inhibitor, partial curve, poor fit] | 
40 | COc1ccc(C2C(=O)N(C3CCC(C)CC3)CC(=O)N2Cc2ccccc2Cl)cc1OC (centres undefined) |  | inconclusive: -43.8% [inhibitor]
41 | N#CCCNS(=O)(=O)c1ccc(C(=O)OCC2CCCCC2)cc1 | inconclusive: 50.1 µM [inhibitor, partial curve, poor fit] | 
42 | Cc1cccc(NC(=O)c2ccc(COc3ccccc3)cc2)c1 |  | inactive: 19.3%
43 | COc1ccccc1CC(=O)N1CCOCC1 |  | inactive: 6.58%
44 | Cc1ccc2nc3n(c(=O)c2c1)-c1ncccc1C(=O)NC3Cc1ccc(O)cc1 (centres undefined) | inconclusive: 100 µM [inhibitor, single point] | 

Record cards, from the list above.
`CC(=O)Nc1ccc(SC[C@H](Cc2ccccc2)N2CCN(CCc3ccccc3)CCC2=O)cc1` is listed as Potency: inconclusive: 25.1 µM [inhibitor, single point]
`CCOc1nc2ccccc2nc1N1CCC(C(=O)Nc2cccc(F)c2)CC1` is listed as Potency: inconclusive: 112 µM [inhibitor, partial curve, poor fit]
`Cc1ccc(S(=O)(=O)CCNC(=O)c2cc3n(n2)CCCNC3)cc1` is listed as Potency: inconclusive: 70.8 µM [inhibitor, partial curve, poor fit]
